# Data reported in patent US8268827B2, “Pyridazinone derivatives as PARP inhibitors” (Istituto di Ricerche di Biologia Molecolare P. Angeletti …, priority 2007, dated 2012).
# Chains of the proteins cited; added tags and fusions are not shown.
# UniProt P09874, whole entry: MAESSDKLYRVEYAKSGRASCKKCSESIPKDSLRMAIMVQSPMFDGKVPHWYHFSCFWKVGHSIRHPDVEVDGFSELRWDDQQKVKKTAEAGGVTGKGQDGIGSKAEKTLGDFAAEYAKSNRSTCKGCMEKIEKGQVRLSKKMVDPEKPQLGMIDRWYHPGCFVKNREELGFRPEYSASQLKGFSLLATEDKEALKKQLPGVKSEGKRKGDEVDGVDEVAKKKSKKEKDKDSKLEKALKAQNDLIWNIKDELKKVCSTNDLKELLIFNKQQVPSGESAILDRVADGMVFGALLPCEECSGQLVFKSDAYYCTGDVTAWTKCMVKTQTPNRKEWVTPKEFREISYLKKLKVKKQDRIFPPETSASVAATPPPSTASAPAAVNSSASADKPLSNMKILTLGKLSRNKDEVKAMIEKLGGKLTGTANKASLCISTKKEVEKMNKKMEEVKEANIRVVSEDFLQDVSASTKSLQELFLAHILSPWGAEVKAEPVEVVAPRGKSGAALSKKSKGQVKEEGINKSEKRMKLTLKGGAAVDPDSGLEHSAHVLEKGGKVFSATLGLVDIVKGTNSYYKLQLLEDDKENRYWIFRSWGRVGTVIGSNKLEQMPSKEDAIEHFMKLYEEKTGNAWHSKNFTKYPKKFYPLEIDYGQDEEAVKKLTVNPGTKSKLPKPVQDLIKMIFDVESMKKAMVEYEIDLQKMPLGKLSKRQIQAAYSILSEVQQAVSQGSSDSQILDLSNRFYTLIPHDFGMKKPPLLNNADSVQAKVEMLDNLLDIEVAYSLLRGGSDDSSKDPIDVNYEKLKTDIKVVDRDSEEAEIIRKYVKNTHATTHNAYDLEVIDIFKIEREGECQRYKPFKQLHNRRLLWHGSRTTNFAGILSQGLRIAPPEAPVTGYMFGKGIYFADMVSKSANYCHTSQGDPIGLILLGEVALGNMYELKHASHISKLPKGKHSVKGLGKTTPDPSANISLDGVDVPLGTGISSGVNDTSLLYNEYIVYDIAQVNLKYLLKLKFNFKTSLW
# Structures can show the parent of a compound that is named as a salt. Some of these results come from one statement about several compounds together.
# Molecular target: T1, PARP-1 (Homo sapiens, UniProt P09874)
# T1 construct: purchased Trevigen 4668-500-01
# Test: PARP-1 SPA assay
# Type: biochemical
# Conditions: not given
# Protocol: Assay buffer: 100 mM Tris pH 8, 4 mM MgCl2, 4 mM Spermine, 200 mM KCl, 0.04% Nonidet P-40.
# Nicotinamide-adenine dinucleotide (NAD)/DNA Mix: [^3H-NAD] (250 uCi/ml, 0.4 ul, Perkin-Elmer NET-443H), NAD (1.5 mM, 0.05 ul, SIGMA N-1511), Biotinylated-NAD (250 uM, 0.03 ul, Trevigen 4670-500-01), Activated calf thymus (1 mg/ml, 0.05 ul, Amersham Biosciences 27-4575), H2O (to 10 ul).
# Developing Mix: Streptavidin SPA beads (5 mg/ml, Amersham Biosciences RPNQ 0007) dissolved in 500 mM EDTA.
# The reaction is performed in 96-well microplate with a final volume of 50 uL/well. Add 5 ul 5% DMSO/compound solution, add enzyme mix (35 ul), start the reaction by adding NAD/DNA mix (10 uL) and incubate for 2 hrs at RT. Stop the reaction by adding developing mix (25 ul) and incubate 15 min at RT. Measure using a Packard TOP COUNT instrument.
row,Structure (SMILES),IC50 [nM]
1,"Cc1c(Cc2ccc(F)c(C(=O)N3CCN(c4cccc5ccccc45)C(=O)C3)c2)n[nH]c(=O)c1C [Example 43, 3-(4-Fluoro-3-{[4-(1-naphthyl)-3-oxopiperazin-1-yl]carbonyl}benzyl)-4,5-dimethyl-6-oxo-1,6-dihydropyridazin-1-ium trifluoroacetate]",< 5
2,"Cc1c(Cc2ccc(F)c(C(=O)N3CCN(c4cccs4)C(=O)C3)c2)n[nH]c(=O)c1C [Example 44, 3-(4-Fluoro-3-{[3-oxo-4-(2-thienyl)piperazin-1-yl]carbonyl}benzyl)-4,5-dimethyl-6-oxo-1,6-dihydropyridazin-1-ium trifluoroacetate]",< 5
3,"Cc1c(Cc2ccc(F)c(C(=O)N3CCN(CC(C)C(F)(F)F)C(=O)C3)c2)n[nH]c(=O)c1C (centres unmarked) [Example 45, 6-(4-Fluoro-3-{[3-oxo-4-(3,3,3-trifluoro-2-methylpropyl)piperazin-1-yl]carbonyl}benzyl)-4,5-dimethyl-3-oxo-2,3-dihydropyridazin-1-ium trifluoroacetate]",< 5
4,"Cc1c(Cc2ccc(F)c(C(=O)N3CCN(C(c4ccccc4)C(F)F)C(=O)C3)c2)n[nH]c(=O)c1C (centres unmarked) [Example 46, 6-(3-{[4-(2,2-Difluoro-1-phenylethyl)-3-oxopiperazin-1-yl]carbonyl}-4-fluorobenzyl)-4,5-dimethyl-3-oxo-2,3-dihydropyridazin-1-ium trifluoroacetate]",< 5
5,"Cc1c(Cc2ccc(F)c(C(=O)N3CCN(C4CCCOC4)C(=O)C3)c2)n[nH]c(=O)c1C (centres unmarked) [Example 47, 6-(4-Fluoro-3-{[3-oxo-4-(tetrahydro-2H-pyran-3-yl)piperazin-1-yl]carbonyl}benzyl)-4,5-dimethyl-3-oxo-2,3-dihydropyridazin-1-ium trifluoroacetate]",< 5
6,"Cc1c(Cc2ccc(F)c(C(=O)N3CCN(c4csc5ccccc45)C(=O)C3)c2)n[nH]c(=O)c1C [Example 62, 3-(3-{[4-(1-Benzothien-3-yl)-3-oxopiperazin-1-yl]carbonyl}-4-fluorobenzyl)-4,5-dimethyl-6-oxo-1,6-dihydropyridazin-1-ium trifluoroacetate]",< 5
7,"Cc1c(Cc2ccc(F)c(C(=O)N3CCN(c4cncs4)C(=O)C3)c2)n[nH]c(=O)c1C [Example 63, 3-(4-Fluoro-3-{[3-oxo-4-(1,3-thiazol-5-yl)piperazin-1-yl]carbonyl}benzyl)-4,5-dimethyl-6-oxo-1,6-dihydropyridazin-1-ium trifluoroacetate]",< 5
8,"Cc1c(Cc2ccc(F)c(C(=O)N3CCN(c4cncnc4)C(=O)C3)c2)n[nH]c(=O)c1C [Example 64, 3-{4-Fluoro-3-[(3-oxo-4-pyrimidin-5-ylpiperazin-1-yl)carbonyl]benzyl}-4,5-dimethyl-6-oxo-1,6-dihydropyridazin-1-ium trifluoroacetate]",< 5
9,"Cc1c(Cc2ccc(F)c(C(=O)N3CCN(c4cncc(C(F)(F)F)c4)C(=O)C3)c2)n[nH]c(=O)c1C [Example 65, 3-[4-Fluoro-3-({3-oxo-4-[5-(trifluoromethyl)pyridin-3-yl]piperazin-1-yl}carbonyl)benzyl]-4,5-dimethyl-6-oxo-1,6-dihydropyridazin-1-ium trifluoroacetate]",< 5
10,"Cc1c(Cc2ccc(F)c(C(=O)N3CCN(C4CCCC(c5ccccc5)C4)C(=O)C3)c2)n[nH]c(=O)c1C (centres unmarked) [Example 66, 6-(4-Fluoro-3-{[3-oxo-4-(3-phenylcyclohexyl)piperazin-1-yl]carbonyl}benzyl)-4,5-dimethyl-3-oxo-2,3-dihydropyridazin-1-ium trifluoroacetate]",< 5
11,"Cc1c(Cc2ccc(F)c(C(=O)N3CCN(C4CCC(c5ccccc5)CC4)C(=O)C3)c2)n[nH]c(=O)c1C (centres unmarked) [Example 68, 6-(4-Fluoro-3-{[3-oxo-4-(4-phenylcyclohexyl)piperazin-1-yl]carbonyl}benzyl)-4,5-dimethyl-3-oxo-2,3-dihydropyridazin-1-ium trifluoroacetate]",< 5
12,"Cc1c(Cc2ccc(F)c(C(=O)N3CCN(C4CCOC4)C(=O)C3)c2)n[nH]c(=O)c1C (centres unmarked) [Example 69, 6-(4-Fluoro-3-{[3-oxo-4-(tetrahydrofuran-3-yl)piperazin-1-yl]carbonyl}benzyl)-4,5-dimethyl-3-oxo-2,3-dihydropyridazin-1-ium trifluoroacetate]",< 5
13,"Cc1c(Cc2ccc(F)c(C(=O)N3CCN(C4CCc5ccccc5C4)C(=O)C3)c2)n[nH]c(=O)c1C (centres unmarked) [Example 70, 6-(4-Fluoro-3-{[3-oxo-4-(1,2,3,4-tetrahydronaphthalen-2-yl)piperazin-1-yl]carbonyl}benzyl)-4,5-dimethyl-3-oxo-2,3-dihydropyridazin-1-ium trifluoroacetate]",< 5
14,"Cc1c(Cc2ccc(F)c(C(=O)N3CCN(C4Cc5ccccc5C4)C(=O)C3)c2)n[nH]c(=O)c1C [Example 71, 6-(3-{[4-(2,3-Dihydro-1H-inden-2-yl)-3-oxopiperazin-1-yl]carbonyl}-4-fluorobenzyl)-4,5-dimethyl-3-oxo-2,3-dihydropyridazin-1-ium trifluoroacetate]",< 5
15,"Cc1c(Cc2ccc(F)c(C(=O)N3CCN(C4COc5ccccc5C4)C(=O)C3)c2)n[nH]c(=O)c1C (centres unmarked) [Example 98, 6-(3-{[4-(3,4-dihydro-2H-chromen-3-yl)-3-oxopiperazin-1-yl]carbonyl}-4-fluorobenzyl)-4,5-dimethyl-3-oxo-2,3-dihydropyridazin-1-ium trifluoroacetate]",< 5
16,"Cc1c(Cc2ccc(F)c(C(=O)N3CCN(C4CCCc5ccccc54)C(=O)C3)c2)n[nH]c(=O)c1C (centres unmarked) [Example 99, 6-(4-fluoro-3-{[3-oxo-4-(1,2,3,4-tetrahydronaphthalen-1-yl)piperazin-1-yl]carbonyl}benzyl)-4,5-dimethyl-3-oxo-2,3-dihydropyridazin-1-ium trifluoroacetate]",< 5
17,"Cc1c(Cc2ccc(F)c(C(=O)N3CCN(C4CCc5ccccc54)C(=O)C3)c2)n[nH]c(=O)c1C (centres unmarked) [Example 100, 6-(3-{[4-(2,3-dihydro-1H-inden-1-yl)-3-oxopiperazin-1-yl]carbonyl}-4-fluorobenzyl)-4,5-dimethyl-3-oxo-2,3-dihydropyridazin-1-ium trifluoroacetate]",< 5
18,"Cc1c(Cc2ccc(F)c(C(=O)N3CCN([C@@H]4C[C@H]5CC[C@@H]4C5)C(=O)C3)c2)n[nH]c(=O)c1C [Example 101, 6-[3-({4-[(1R,2R,4S)-Bicyclo[2.2.1]hept-2-yl]-3-oxopiperazin-1-yl}carbonyl)-4-fluorobenzyl]-4,5-dimethyl-3-oxo-2,3-dihydropyridazin-1-ium trifluoroacetate]",< 5
19,"Cc1c(Cc2ccc(F)c(C(=O)N3CC(=O)N(C4CCCC4)C(C)C3)c2)n[nH]c(=O)c1C (centres unmarked) [Example 102, 6-{3-[(4-cyclopentyl-3-methyl-5-oxopiperazin-1-yl)carbonyl]-4-fluorobenzyl}-4,5-dimethyl-3-oxo-2,3-dihydropyridazin-1-ium trifluoroacetate]",< 5
20,"Cc1c(Cc2ccc(F)c(C(=O)N3CCN([C@H]4CCCOC4)C(=O)C3)c2)n[nH]c(=O)c1C [Example 103, 6-[4-fluoro-3-({3-oxo-4-[(3S)-tetrahydro-2H-pyran-3-yl]piperazin-1-yl}carbonyl)benzyl]-4,5-dimethylpyridazin-3(2H)-one]",< 5
21,"Cc1c(Cc2ccc(F)c(C(=O)N3CCN([C@@H]4CCCOC4)C(=O)C3)c2)n[nH]c(=O)c1C [Example 104, 6-[4-fluoro-3-({3-oxo-4-[(3R)-tetrahydro-2H-pyran-3-yl]piperazin-1-yl}carbonyl)benzyl]-4,5-dimethylpyridazin-3(2H)-one]",< 5
22,"Cc1c(Cc2ccc(F)c(C(=O)N3CCN(C4COC5(CCCC5)C4)C(=O)C3)c2)n[nH]c(=O)c1C (centres unmarked) [Example 106, 6-(4-Fluoro-3-{[4-(1-oxaspiro[4.4]non-3-yl)-3-oxopiperazin-1-yl]carbonyl}benzyl)-4,5-dimethylpyridazin-3(2H)-one trifluoroacetate]",< 5
23,"Cc1c(Cc2ccc(F)c(C(=O)N3CCN(C4COC5(CCCCC5)C4)C(=O)C3)c2)n[nH]c(=O)c1C (centres unmarked) [Example 107, 6-(4-Fluoro-3-{[4-(1-oxaspiro[4.5]dec-3-yl)-3-oxopiperazin-1-yl]carbonyl}benzyl)-4,5-dimethylpyridazin-3(2H)-one trifluoroacetate]",< 5
24,"Cc1c(Cc2ccc(F)c(C(=O)N3CC(=O)N4CCCC[C@H]4C3)c2)n[nH]c(=O)c1C [Example 109, (9aS)-2-{5-[(4,5-Dimethyl-6-oxo-1,6-Dihydropyridazin-3-yl)methyl]-2-fluorobenzoyl}octahydro-4H-pyrido[1,2-a]pyrazin-4-one]",< 5
25,"Cc1c(Cc2ccc(F)c(C(=O)N3CCN(C4(C)CCCCC4)C(=O)C3)c2)n[nH]c(=O)c1C [Example 110, 6-(4-fluoro-3-{[4-(1-methylcyclohexyl)-3-oxopiperazin-1-yl]carbonyl}benzyl)-4,5-dimethyl-3-oxo-2,3-dihydropyridazin-1-ium trifluoroacetate]",< 5

# Same assay, conditions: trifluoroacetate
row,Structure (SMILES),IC50 [nM]
1,"CCN1CCN(C(=O)c2cc(Cc3n[nH]c(=O)c(C(F)(F)F)c3C)ccc2F)CC1=O [Example 105, 3-{3-[(4-Ethyl-3-oxopiperazin-1-yl)carbonyl]-4-fluorobenzyl}-4-methyl-6-oxo-5-(trifluoromethyl)-1,6-dihydropyridazin-1-ium trifluoroacetate]",< 5
